Experimental data reported in the supplement of paper PMC10849652.
The other results are listed elsewhere or left out. Residues, ends and D or L forms follow the SMILES beside them. *: point of attachment. Cbz = O=C(OCc1ccccc1)*

Protein sequences, listed by entry. Tags and fused reporters are not part of them. Lines headed by an entry give the natural chain unless they say otherwise; changes in a name come on top.
UniProt O94915: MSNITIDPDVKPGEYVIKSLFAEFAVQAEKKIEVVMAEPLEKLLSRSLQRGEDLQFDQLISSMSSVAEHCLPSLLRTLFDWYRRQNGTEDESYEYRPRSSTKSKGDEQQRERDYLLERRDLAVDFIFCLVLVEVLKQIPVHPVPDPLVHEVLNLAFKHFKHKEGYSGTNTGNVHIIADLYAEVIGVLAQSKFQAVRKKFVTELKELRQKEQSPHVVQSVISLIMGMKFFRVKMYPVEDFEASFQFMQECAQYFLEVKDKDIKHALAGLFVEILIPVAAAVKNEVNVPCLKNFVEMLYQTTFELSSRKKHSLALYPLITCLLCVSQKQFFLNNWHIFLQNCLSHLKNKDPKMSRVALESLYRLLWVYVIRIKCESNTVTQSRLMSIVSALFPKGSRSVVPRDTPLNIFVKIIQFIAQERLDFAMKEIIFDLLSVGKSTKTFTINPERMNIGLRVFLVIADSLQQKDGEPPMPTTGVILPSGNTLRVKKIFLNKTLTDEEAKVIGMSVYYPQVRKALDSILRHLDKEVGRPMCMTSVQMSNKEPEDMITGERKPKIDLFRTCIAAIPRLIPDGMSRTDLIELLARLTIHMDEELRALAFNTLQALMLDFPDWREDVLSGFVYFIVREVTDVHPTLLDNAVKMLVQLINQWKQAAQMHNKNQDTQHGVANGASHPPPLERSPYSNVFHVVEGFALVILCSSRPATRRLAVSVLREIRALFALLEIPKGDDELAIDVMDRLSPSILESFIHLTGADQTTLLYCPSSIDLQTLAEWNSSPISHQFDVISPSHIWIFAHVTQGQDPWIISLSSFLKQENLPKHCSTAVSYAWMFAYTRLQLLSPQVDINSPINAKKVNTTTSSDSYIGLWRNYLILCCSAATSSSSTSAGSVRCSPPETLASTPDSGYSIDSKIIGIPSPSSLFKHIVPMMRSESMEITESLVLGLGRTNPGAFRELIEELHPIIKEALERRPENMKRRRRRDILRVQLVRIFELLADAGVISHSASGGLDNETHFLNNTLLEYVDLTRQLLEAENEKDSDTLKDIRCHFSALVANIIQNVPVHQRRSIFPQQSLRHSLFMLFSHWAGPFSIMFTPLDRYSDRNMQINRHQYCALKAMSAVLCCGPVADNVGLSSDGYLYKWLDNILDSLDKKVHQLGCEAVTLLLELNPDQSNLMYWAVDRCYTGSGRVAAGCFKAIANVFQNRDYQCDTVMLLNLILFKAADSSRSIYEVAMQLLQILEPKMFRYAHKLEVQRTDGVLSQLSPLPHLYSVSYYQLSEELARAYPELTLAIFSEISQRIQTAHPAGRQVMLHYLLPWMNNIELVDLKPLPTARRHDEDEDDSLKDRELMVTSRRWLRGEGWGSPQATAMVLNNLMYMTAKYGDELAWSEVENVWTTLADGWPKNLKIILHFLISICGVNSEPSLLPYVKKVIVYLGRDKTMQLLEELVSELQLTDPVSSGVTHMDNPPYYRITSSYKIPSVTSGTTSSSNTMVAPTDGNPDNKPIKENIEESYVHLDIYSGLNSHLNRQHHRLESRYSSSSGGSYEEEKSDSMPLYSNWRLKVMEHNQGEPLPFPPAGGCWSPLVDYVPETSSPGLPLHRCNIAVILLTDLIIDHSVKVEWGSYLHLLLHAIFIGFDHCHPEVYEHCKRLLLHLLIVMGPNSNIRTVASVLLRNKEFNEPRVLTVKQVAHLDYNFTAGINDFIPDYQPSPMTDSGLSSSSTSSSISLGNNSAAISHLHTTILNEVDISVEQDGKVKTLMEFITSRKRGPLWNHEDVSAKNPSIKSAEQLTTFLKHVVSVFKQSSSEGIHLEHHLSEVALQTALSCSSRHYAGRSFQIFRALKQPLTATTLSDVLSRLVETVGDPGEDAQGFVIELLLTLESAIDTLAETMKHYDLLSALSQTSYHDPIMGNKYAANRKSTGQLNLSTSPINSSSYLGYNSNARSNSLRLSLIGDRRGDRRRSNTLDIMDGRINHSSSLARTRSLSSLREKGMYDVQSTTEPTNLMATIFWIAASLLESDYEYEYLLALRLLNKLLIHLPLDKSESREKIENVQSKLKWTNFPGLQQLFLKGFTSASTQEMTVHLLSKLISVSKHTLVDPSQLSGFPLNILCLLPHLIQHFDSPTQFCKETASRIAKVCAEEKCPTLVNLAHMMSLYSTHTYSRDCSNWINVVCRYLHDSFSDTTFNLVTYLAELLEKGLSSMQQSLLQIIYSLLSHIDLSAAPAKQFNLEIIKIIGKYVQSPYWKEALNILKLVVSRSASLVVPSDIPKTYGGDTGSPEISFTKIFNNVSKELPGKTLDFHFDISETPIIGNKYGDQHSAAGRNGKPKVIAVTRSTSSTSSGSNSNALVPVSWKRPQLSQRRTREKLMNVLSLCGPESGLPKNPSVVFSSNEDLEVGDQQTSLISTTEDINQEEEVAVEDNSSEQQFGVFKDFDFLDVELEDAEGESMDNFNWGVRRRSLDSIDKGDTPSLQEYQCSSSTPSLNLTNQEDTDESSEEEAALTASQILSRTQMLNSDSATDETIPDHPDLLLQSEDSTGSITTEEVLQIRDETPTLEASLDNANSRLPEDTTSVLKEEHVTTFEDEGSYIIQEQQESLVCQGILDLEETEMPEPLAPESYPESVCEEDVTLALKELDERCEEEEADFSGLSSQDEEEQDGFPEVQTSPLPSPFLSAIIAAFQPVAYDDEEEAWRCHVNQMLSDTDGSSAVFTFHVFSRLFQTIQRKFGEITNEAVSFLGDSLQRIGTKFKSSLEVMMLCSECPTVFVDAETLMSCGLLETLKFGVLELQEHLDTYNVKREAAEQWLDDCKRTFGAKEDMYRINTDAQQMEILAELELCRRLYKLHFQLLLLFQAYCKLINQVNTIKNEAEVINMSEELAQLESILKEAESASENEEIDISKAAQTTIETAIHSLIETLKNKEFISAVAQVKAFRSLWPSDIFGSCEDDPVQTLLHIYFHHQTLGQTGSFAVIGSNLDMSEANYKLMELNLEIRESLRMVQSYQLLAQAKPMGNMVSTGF
UniProt P09958, whole entry, looked up: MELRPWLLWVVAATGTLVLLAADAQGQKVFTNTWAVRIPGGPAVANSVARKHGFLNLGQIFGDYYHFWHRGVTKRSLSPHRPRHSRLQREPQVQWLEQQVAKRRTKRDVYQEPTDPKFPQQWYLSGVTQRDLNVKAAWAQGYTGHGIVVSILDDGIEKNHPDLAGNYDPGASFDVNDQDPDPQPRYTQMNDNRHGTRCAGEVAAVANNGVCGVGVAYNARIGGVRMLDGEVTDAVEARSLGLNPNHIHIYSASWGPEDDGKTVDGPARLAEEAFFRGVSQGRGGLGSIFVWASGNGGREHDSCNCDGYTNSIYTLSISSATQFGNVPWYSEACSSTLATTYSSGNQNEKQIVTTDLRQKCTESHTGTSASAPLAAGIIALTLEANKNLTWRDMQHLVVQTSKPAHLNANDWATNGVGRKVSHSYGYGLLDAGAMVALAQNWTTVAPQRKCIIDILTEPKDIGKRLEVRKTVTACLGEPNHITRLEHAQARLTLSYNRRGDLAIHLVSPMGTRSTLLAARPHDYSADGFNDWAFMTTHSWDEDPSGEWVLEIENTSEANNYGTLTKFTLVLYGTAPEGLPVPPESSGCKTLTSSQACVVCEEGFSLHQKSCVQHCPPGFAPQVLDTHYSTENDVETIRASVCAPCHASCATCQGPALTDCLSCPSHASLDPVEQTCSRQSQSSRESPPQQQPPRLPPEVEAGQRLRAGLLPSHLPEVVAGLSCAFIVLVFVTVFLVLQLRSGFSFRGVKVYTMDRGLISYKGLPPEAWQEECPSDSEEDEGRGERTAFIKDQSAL
UniProt P0CL80: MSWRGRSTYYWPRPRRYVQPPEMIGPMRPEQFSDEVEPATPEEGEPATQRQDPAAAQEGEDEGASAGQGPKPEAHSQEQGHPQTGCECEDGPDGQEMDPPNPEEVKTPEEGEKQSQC
UniProt Q9BYC5: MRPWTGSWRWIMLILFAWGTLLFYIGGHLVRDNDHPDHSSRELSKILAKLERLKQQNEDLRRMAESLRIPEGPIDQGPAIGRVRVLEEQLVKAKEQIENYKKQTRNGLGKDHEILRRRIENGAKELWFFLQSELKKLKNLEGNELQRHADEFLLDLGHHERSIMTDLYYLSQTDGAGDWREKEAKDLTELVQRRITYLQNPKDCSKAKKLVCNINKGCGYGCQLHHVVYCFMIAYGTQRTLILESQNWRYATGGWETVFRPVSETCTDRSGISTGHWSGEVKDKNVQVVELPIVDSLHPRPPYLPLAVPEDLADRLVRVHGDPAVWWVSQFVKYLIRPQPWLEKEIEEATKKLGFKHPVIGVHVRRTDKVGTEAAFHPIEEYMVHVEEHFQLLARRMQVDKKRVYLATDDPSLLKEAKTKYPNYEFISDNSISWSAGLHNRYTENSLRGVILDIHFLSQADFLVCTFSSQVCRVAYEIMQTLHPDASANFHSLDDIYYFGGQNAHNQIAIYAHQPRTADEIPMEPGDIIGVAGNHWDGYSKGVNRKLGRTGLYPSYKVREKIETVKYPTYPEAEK
UniProt P48507: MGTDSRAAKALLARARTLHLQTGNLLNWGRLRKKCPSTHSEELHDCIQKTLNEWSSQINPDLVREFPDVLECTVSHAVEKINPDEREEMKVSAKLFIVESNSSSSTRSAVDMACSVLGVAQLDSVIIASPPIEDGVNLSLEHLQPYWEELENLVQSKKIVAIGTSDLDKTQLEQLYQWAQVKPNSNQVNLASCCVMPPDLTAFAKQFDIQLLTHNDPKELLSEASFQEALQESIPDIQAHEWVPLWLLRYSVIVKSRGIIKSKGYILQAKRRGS
UniProt P54803: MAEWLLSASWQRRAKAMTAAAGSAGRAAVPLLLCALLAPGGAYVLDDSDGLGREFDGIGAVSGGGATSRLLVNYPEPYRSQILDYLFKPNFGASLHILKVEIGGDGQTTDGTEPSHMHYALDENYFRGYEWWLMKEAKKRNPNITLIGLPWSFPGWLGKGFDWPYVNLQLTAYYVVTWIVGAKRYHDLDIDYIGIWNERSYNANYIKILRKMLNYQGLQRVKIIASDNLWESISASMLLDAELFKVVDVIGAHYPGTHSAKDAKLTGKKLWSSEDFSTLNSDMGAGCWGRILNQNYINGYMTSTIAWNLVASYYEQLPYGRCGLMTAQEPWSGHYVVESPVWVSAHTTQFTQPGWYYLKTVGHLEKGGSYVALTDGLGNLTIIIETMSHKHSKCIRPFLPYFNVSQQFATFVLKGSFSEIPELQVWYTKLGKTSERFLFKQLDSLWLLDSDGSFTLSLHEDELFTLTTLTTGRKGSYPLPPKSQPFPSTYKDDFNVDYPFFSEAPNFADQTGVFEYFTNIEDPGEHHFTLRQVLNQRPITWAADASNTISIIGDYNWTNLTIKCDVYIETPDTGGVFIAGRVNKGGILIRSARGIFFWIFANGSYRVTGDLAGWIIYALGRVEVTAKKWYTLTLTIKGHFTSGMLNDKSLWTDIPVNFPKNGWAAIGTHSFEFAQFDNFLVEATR
UniProt P51570: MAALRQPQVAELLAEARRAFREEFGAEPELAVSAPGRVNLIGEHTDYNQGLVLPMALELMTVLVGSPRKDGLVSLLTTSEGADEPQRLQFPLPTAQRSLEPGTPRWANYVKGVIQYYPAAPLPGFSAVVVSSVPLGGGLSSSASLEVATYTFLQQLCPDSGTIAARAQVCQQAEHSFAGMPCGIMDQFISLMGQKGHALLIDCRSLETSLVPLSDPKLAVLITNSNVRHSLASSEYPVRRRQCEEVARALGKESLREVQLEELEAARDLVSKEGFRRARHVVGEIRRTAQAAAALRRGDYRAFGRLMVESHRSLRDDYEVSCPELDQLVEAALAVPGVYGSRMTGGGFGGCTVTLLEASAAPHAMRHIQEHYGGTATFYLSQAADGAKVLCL
UniProt Q8N2G8: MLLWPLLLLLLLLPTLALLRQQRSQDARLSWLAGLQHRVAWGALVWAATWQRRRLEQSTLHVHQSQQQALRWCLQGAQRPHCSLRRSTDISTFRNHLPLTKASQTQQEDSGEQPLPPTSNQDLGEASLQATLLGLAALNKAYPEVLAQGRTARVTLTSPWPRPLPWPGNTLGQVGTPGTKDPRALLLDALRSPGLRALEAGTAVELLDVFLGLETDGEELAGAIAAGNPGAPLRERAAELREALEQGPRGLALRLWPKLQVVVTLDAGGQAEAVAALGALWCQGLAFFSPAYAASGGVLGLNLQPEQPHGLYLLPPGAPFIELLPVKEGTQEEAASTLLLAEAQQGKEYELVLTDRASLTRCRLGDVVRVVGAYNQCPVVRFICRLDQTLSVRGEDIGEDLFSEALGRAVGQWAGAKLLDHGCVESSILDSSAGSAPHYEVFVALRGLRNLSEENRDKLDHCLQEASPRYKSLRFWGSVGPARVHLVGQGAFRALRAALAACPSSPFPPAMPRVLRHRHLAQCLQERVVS
UniProt Q8NB37: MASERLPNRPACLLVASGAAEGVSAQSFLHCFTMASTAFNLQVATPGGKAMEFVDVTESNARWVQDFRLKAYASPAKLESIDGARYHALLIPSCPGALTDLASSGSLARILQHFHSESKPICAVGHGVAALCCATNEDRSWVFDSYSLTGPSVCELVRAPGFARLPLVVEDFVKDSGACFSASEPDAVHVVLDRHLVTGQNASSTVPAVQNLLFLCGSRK

What was measured:
Assay in all cases: log2 fold change, soluble protein after heating vs DMSO (PISA); higher = thermal stabilisation; K562 cells, 10 uM, 30 min; active = over 0.2 and 3.5 SD of the protein, either way, in both replicates (recomputed)
[1] = compound: C#Cc1cccc(Nc2ncnc3cc(OCCOC)c(OCCOC)cc23)c1 [erlotinib]
Method in brief: (§1)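 Aliquots of K562 cells (2×10^6 cells/mL) treated with 10 μM compound for 30 min were heated for 3 min over 48°C-58°C. After pooling and extraction in PBS with 0.5% NP-40 at 4°C, soluble protein from a 21,000xg, 90 min spin was quantified by TMTpro 16plex LC-MS/MS with channel sums equalised. Thermal stability is expressed against control samples, from duplicates, as a log2 fold change.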

[2] = compound: C/C(=N\NC(=O)C1=CC(=CC=C1)S(=O)(=O)N2CCOCC2)/C3=C(C=CC(=C3)Cl)O
Method in brief: as §1

[3] = compound: C1=CC(=C(C=C1Cl)C2=NC3=NC=CN=C3C(=N2)NC4=CC=NC=C4)F
Method in brief: as §1

[4] = compound: C1=CC(=CC=C1C2=NC3=C(N2)C=C(C=C3)C(=O)N)OC4=CC=C(C=C4)Cl
Method in brief: as §1

[5] = compound: C1=CC2=C(C=CC(=C2)/C=C\3/C(=O)NC(=NCC4=CC=CS4)S3)N=C1
Method in brief: as §1

[6] = compound: C1=CC2=NC=CN=C2C=C1/C=C/3\C(=O)NC(=O)S3
Method in brief: as §1

[7] = compound: C1=CC=C(C=C1)C2=NC(=C(N2)C3=CC=NC=C3)C4=CC(=C(C=C4)Cl)O
Method in brief: as §1

[8] = compound: C1=CC=C2C(=C1)C3=NNC4=CC=CC(=C43)C2=O
Method in brief: as §1

[9] = compound: C1CCN(C1)C(=O)NC2=CC=CC(=C2)NC3=NC=C(C(=N3)NCCC4=CN=CN4)Br
Method in brief: as §1

[10] = compound: C1CN(CCC1(CC2=CC=C(C=C2)Cl)N)C3=NC=NC4=C3C=CN4
Method in brief: as §1

[11] = compound: C1COCCN1CCN2C3=CC=CC=C3N=C2NC(=O)C4=CC(=CC=C4)[N+](=O)[O-] [IRAK-1-4 Inhibitor I]
Method in brief: as §1

[12] = compound: C=CC(=O)N1CCC[C@@H](n2nc(-c3ccc(Oc4ccccc4)cc3)c3c(N)ncnc32)C1 [ibrutinib]
Method in brief: as §1

[13] = compound: CC(=O)c1cnc2ccc(-c3cc(Cl)c(O)c(Cl)c3)nc2c1N[C@H]1CC[C@H](CN(C)C)CC1
Method in brief: as §1

[14] = compound: CC(C)(C)Cn1c(N)nc2ccc(-c3[nH]c(C(C)(C)C)nc3-c3ccc(F)cc3)nc21 [ralimetinib]
Method in brief: as §1

[15] = compound: CC(C)(O)CC(=O)NCCn1ccc2ncnc(Nc3ccc(Oc4cccc(C(F)(F)F)c4)c(Cl)c3)c21
Method in brief: as §1

[16] = compound: CC(C)C1=C2N=C(C=C(N2N=C1)NCC3=CC=CC=C3)NCCCCCCN
Method in brief: as §1

[17] = compound: CC(C)C[C@@H](C=O)NC(=O)[C@H](CC(C)C)NC(=O)[C@H](CC(C)C)NC(=O)OCc1ccccc1
Method in brief: as §1

[18] = compound: CC(C)N(C[C@H]1O[C@@H](n2cnc3c(N)ncnc32)[C@H](O)[C@@H]1O)[C@H]1C[C@@H](CCc2nc3cc(C(C)(C)C)ccc3[nH]2)C1 [pinometostat]
Method in brief: as §1

[19] = compound: CC1=C(C(CC(=O)N1)C2=CC=C(C=C2)C(F)(F)F)C(=O)NC3=C(C=C4C(=C3)C=NN4)F
Method in brief: as §1

[20] = compound: CC1=C(C2=C(C=C1)C(=O)C3=CC=CC=C3N2CCCN)C
Method in brief: as §1

Measured: log2 fold change

FRYL (UniProt O94915)
inactive: [1] -0.068 | [2] 0.026 | [3] -0.032 | [4] 0.028 | [5] 0.018 | [6] 0.005 | [7] -0.015 | [8] 0.001 | [9] -0.027 | [10] -0.026 | [11] 0.014 | [12] -0.053 | [13] -0.044 | [14] 0.045 | [15] -0.015 | [16] -0.013 | [17] 0.02 | [18] 0.082 | [19] -0.004 | [20] 0.006

FURIN (UniProt P09958)
inactive: [1] -0.019 | [2] -0.11 | [3] 0.041 | [4] 0.035 | [5] 0.08 | [6] -0.016 | [7] -0.024 | [8] -0.046 | [9] -0.166 | [10] 0.033 | [11] 0.03 | [12] 0.042 | [13] -0.006 | [14] 0.053 | [15] 0.007 | [16] -0.219 | [17] -0.001 | [18] -0.015 | [19] 0.01 | [20] -0.088

GAGE12F (UniProt P0CL80)
inactive: [1] -0.056 | [2] -0.061 | [3] 0.017 | [4] -0.035 | [5] 0.08 | [6] 0.025 | [7] -0.007 | [8] 0.011 | [9] -0.088 | [10] 0.052 | [11] 0.045 | [12] 0.025 | [13] 0.037 | [14] -0.038 | [15] 0.02 | [16] 0.015 | [17] 0.019 | [18] -0.06 | [20] 0.128

FUT8 (UniProt Q9BYC5)
inactive: [1] -0.036 | [2] 0.019 | [3] -0.07 | [4] -0.12 | [5] -0.145 | [6] -0.055 | [7] -0.004 | [8] -0.038 | [9] 0.045 | [10] -0.038 | [11] -0.02 | [12] 0.064 | [13] -0.098 | [14] -0.087 | [15] 0.019 | [16] -0.133 | [17] 0.053 | [18] 0.065 | [20] 0.077

GALNT1 (UniProt Q10472)
inactive: [1] -0.001 | [2] -0.014 | [3] -0.069 | [4] 0.022 | [5] 0.031 | [6] 0.006 | [7] 0.06 | [8] -0.003 | [9] 0.004 | [10] 0.06 | [11] -0.106 | [12] 0.023 | [13] -0.002 | [14] 0.101 | [15] 0.018 | [16] 0.048 | [17] -0.141 | [18] -0.025 | [20] 0.021

GCLM (UniProt P48507)
inactive: [1] -0.054 | [2] 0.199 | [3] 0.014 | [4] -0.019 | [5] -0.078 | [6] 0.088 | [7] -0.006 | [8] 0.064 | [9] -0.008 | [10] -0.035 | [11] -0.065 | [12] -0.038 | [13] 0.106 | [14] 0.002 | [15] -0.104 | [16] -0.034 | [17] 0.02 | [18] 0.049 | [20] -0.023

GALNT2 (UniProt Q10471)
inactive: [1] -0.052 | [2] 0.043 | [3] 0.021 | [4] 0 | [5] 0.009 | [6] 0.022 | [7] 0.028 | [8] 0.046 | [9] 0.009 | [10] 0.042 | [11] 0.009 | [12] -0.019 | [13] -0.006 | [14] 0.014 | [15] 0.027 | [16] -0.021 | [17] -0.02 | [18] -0.02 | [20] 0.007

GCSH (UniProt P23434)
inactive: [1] -0.072 | [2] -0.023 | [3] 0.253 | [4] 0.061 | [5] -0.036 | [6] 0.067 | [7] -0.038 | [8] -0.007 | [9] -0.017 | [10] -0.025 | [11] 0.027 | [12] -0.002 | [13] 0.011 | [14] -0.026 | [15] -0.031 | [16] -0.025 | [17] -0.049 | [18] -0.021 | [20] 0.03

GGA2 (UniProt Q9UJY4)
inactive: [1] 0.036 | [2] -0.041 | [3] -0.151 | [4] 0.003 | [5] 0.063 | [6] 0.033 | [7] -0.053 | [8] -0.013 | [9] 0.025 | [10] -0.016 | [11] 0.007 | [12] -0.05 | [13] -0.006 | [14] -0.153 | [15] -0.048 | [16] -0.169 | [17] 0.068 | [18] -0.038 | [20] 0.032

GAPVD1 isoform 6 (UniProt Q14C86)
inactive: [1] 0.008 | [2] 0.133 | [3] -0.036 | [4] -0.043 | [5] 0.033 | [6] 0.007 | [7] 0.002 | [8] 0.037 | [9] -0.012 | [10] -0.041 | [11] -0.044 | [12] -0.087 | [13] 0.005 | [14] 0.056 | [15] -0.111 | [17] 0.037 | [18] 0.094 | [20] -0.003
active: [16] -0.278

GALC (UniProt P54803)
inactive: [1] -0.023 | [2] -0.002 | [3] -0.051 | [4] 0.041 | [5] 0.009 | [6] 0.028 | [7] -0.017 | [8] -0.011 | [9] -0.032 | [10] 0.08 | [11] 0.053 | [12] 0.017 | [13] 0.016 | [14] -0.012 | [15] 0.041 | [16] -0.122 | [17] 0.05 | [18] 0.067 | [20] -0.003

GALK1 isoform 2 (UniProt P51570)
inactive: [1] 0.002 | [2] 0.082 | [3] 0.158 | [4] -0.023 | [5] -0.08 | [6] 0.016 | [7] 0.07 | [8] 0.055 | [9] -0.094 | [10] 0.076 | [11] 0.046 | [12] 0.024 | [13] 0.018 | [14] 0.081 | [15] -0.081 | [16] -0.004 | [17] -0.121 | [18] 0.041 | [20] -0.018

GGT7 (UniProt Q9UJ14)
inactive: [1] 0.012 | [2] -0.006 | [3] 0.084 | [4] -0.027 | [5] -0.001 | [6] -0.004 | [7] -0.018 | [8] -0.01 | [9] -0.035 | [10] 0.062 | [11] 0.04 | [12] 0.038 | [13] 0.02 | [14] -0.046 | [15] 0.015 | [16] 0.095 | [17] 0.001 | [18] -0.005 | [20] -0.031

FUBP3 (UniProt Q96I24)
active: [20] 0.387
inactive: [1] -0.059 | [2] 0.007 | [3] 0.084 | [4] 0.019 | [5] -0.014 | [6] 0.069 | [7] -0.017 | [8] 0.002 | [9] 0.009 | [10] 0.036 | [11] -0.002 | [12] -0.002 | [13] -0.054 | [14] 0.023 | [15] -0.083 | [16] 0.15 | [17] 0.036 | [18] -0.017

GHDC (UniProt Q8N2G8)
active: [16] -0.277
inactive: [1] 0.062 | [2] 0.046 | [3] -0.002 | [4] 0.013 | [5] 0.011 | [6] 0.003 | [7] -0.021 | [8] -0.008 | [9] -0.009 | [10] 0.06 | [11] 0.014 | [12] 0.015 | [13] -0.036 | [14] 0.007 | [15] 0.037 | [17] 0.018 | [18] -0.015 | [20] -0.011

GATD1 (UniProt Q8NB37)
inactive: [1] 0.028 | [2] -0.006 | [3] 0.111 | [4] -0.012 | [5] 0.057 | [6] 0.007 | [7] -0.01 | [8] 0.047 | [9] -0.006 | [10] 0.098 | [11] -0.069 | [12] 0.106 | [13] -0.099 | [14] -0.026 | [15] 0.01 | [16] 0.026 | [17] 0.104 | [18] 0.141 | [20] 0

2 entries drawn at random from those above:
GATD1 (UniProt Q8NB37)
inactive: [1] 0.028 | [2] -0.006 | [3] 0.111 | [4] -0.012 | [5] 0.057 | [6] 0.007 | [7] -0.01 | [8] 0.047 | [9] -0.006 | [10] 0.098 | [11] -0.069 | [12] 0.106 | [13] -0.099 | [14] -0.026 | [15] 0.01 | [16] 0.026 | [17] 0.104 | [18] 0.141 | [20] 0

GHDC (UniProt Q8N2G8)
active: [16] -0.277
inactive: [1] 0.062 | [2] 0.046 | [3] -0.002 | [4] 0.013 | [5] 0.011 | [6] 0.003 | [7] -0.021 | [8] -0.008 | [9] -0.009 | [10] 0.06 | [11] 0.014 | [12] 0.015 | [13] -0.036 | [14] 0.007 | [15] 0.037 | [17] 0.018 | [18] -0.015 | [20] -0.011
